These results are taken from paper PMC13128453, “Complexoform-restricted covalent TRMT112 ligands that allosterically agonize METTL5” (Nature Chemical Biology, 2025).

Protein sequences, listed by entry. Tags and fused reporters are not part of them.
UniProt Q9NRN9: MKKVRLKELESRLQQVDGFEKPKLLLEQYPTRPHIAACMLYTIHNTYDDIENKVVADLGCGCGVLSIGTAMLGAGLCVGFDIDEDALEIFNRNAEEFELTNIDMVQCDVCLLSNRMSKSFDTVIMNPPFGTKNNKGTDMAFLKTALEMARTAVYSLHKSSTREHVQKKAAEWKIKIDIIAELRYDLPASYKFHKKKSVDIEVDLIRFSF

Substitutions are numbered along the chain they refer to. In names and notes the source's numbering stands. No constants are given. Whether binding was seen depends on the method and setting. Some binding calls cover weakened binding; strength is not graded here. Where a sequence is shown, tags or fusion partners need not be part of it.

This test concerns the target His–METTL5 (human) (UniProt Q9NRN9). Put plainly: co-purification (metal affinity, anion exchange, SEC); untagged TRMT112 coexpressed with His–METTL5 in E. coli BL21 (DE3); Ni-NTA (washes up to 1 M NaCl), HiTrap Q FF, Superdex 200 in 50 mM Tris-HCl pH 7.5, 200 mM NaCl, 1 mM TCEP.

B1: TRMT112-C100A (of the purified TRMT112-C100A:His–METTL5 complex) (protein, UniProt Q9UI30 1-125)
chain: MKLLTHNLLSSHVRGVGSRGFPLRLQATEVRICPVEFNPNFVARMIPKVEWSAFLEAADNLRLIQVPKGPVEGYEENEEFLRTMHHLLLEVEVIEGTLQAPESGRMFPISRGIPNMLLSEEETES
Turning to B1, the binding entry is given as “binds”.

B2: WT-TRMT112 (of the purified WT-TRMT112:His–METTL5 complex) (protein, UniProt Q9UI30 1-125)
chain: B1 chain with A100C
As for B2, the binding result is “binds”.
